Test [1] addresses T1, recombinant His6-tagged MutS2 (Thermus thermophilus HB8) (T. thermophilus) (UniProt Q5SHT5).
T1 sequence: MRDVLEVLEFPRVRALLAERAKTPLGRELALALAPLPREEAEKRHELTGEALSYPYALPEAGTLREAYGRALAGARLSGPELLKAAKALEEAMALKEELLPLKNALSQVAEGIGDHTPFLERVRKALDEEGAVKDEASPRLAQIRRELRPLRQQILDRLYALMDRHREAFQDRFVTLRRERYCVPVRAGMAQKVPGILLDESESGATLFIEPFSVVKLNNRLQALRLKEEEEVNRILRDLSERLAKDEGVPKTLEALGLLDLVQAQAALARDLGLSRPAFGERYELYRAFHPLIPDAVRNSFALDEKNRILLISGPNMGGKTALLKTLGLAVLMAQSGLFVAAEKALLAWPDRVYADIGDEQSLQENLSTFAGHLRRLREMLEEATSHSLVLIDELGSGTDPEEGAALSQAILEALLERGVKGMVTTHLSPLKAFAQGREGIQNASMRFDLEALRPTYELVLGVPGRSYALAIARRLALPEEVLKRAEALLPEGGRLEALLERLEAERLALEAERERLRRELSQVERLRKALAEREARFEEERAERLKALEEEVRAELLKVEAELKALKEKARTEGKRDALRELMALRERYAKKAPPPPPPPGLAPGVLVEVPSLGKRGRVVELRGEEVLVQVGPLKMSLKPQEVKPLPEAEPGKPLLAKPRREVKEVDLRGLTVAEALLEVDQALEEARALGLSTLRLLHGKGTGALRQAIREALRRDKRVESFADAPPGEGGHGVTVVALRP
Description: pull-down; His6-tagged MutS2 held on Talon resin; T. thermophilus HB8 lysate loaded; with 5 mM ATP or ADP and 5 mM MgCl2, 30 min at room temperature; washed with buffer II with 10 mM imidazole, eluted with 100 mM imidazole; Western blot; only the target purified.

Sequences of proteins named here, by UniProt entry; tags and fusion partners are left off. A change or cut given only in a name is not applied to a line headed by its entry.
UniProt Q56239: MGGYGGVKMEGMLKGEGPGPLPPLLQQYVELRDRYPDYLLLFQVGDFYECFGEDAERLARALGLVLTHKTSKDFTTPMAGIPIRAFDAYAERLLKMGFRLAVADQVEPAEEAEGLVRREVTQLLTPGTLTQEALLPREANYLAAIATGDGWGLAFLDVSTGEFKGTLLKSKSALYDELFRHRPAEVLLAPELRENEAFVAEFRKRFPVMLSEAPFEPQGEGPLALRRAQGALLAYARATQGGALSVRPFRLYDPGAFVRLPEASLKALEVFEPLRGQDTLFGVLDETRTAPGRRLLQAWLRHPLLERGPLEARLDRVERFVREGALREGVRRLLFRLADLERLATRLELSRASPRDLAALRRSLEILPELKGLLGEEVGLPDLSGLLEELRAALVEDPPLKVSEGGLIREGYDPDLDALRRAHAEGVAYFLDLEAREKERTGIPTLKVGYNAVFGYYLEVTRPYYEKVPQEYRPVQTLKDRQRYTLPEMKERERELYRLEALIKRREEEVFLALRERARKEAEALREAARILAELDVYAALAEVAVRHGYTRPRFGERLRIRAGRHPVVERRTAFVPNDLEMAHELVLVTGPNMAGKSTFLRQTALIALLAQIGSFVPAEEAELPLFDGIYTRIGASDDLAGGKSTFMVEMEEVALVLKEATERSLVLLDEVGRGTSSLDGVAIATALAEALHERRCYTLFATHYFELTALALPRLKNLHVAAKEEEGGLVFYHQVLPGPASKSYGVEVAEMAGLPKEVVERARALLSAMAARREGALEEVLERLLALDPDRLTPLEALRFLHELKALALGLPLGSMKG
UniProt Q9RA54: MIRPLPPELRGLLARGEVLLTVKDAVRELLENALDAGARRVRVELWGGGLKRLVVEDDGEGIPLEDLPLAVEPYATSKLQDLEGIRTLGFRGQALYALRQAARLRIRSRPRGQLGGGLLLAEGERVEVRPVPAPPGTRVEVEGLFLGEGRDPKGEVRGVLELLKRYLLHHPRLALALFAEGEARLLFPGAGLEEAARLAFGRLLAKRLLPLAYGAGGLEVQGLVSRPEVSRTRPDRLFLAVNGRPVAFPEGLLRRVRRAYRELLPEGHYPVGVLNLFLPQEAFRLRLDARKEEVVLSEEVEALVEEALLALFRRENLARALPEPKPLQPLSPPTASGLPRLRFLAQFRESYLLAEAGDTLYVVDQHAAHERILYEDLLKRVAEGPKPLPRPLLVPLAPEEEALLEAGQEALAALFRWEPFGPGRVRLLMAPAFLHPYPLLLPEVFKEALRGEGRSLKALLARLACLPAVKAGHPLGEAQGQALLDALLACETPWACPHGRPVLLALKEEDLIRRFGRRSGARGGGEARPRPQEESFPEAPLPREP

Test [2] has as its target T1, recombinant His6-tagged MutS2 (Thermus thermophilus HB8) (T. thermophilus). Kind of test: pull-down; His6-tagged MutS2 held on Talon resin; T. thermophilus HB8 lysate loaded; without adenine nucleotide, 30 min at room temperature; washed with buffer II with 10 mM imidazole, eluted with 100 mM imidazole; Western blot; only the target purified.
The target of test [3] is T2, Thermus thermophilus HB8 MutS2 (endogenous) (Thermus thermophilus HB8 (endogenous in T. thermophilus HB8 cells)) (UniProt Q5SHT5).
T2 sequence: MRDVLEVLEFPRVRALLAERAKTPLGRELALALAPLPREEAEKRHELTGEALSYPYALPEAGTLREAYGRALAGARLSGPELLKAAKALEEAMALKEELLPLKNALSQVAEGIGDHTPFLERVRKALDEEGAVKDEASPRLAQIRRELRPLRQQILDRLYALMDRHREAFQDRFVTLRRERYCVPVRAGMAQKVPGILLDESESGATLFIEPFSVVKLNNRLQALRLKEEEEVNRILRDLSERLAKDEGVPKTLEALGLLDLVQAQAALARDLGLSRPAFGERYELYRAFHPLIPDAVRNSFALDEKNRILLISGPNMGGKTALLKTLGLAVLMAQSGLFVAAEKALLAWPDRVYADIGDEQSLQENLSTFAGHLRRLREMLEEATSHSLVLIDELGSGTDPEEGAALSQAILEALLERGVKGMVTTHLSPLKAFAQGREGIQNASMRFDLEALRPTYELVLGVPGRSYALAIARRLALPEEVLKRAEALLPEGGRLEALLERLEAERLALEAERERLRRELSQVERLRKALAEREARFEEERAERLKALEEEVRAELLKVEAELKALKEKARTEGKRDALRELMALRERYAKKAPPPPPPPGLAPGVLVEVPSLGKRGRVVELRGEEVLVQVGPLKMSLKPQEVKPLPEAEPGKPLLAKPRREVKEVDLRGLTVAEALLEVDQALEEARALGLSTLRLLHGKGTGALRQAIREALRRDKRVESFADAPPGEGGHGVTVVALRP
Description: co-IP; endogenous proteins of T. thermophilus HB8 lysate (50 mM Tris-HCl pH 7.5, 30 mM NaCl) treated with DNase I 0.5 mg/ml, 37°C 30 min; polyclonal rabbit antibody on Dynabeads-Protein A; Western blot.

Test [4] has as its target Thermus thermophilus HB8 MutS (endogenous) (Thermus thermophilus HB8 (endogenous in T. thermophilus HB8 cells)) (UniProt Q56239). The test is described as above.
In test [5] the target is Thermus thermophilus HB8 MutL (endogenous) (Thermus thermophilus HB8 (endogenous in T. thermophilus HB8 cells)) (UniProt Q9RA54). Described as above.

These are yes or no findings as the source states them, for the method shown. Binding seen in cells or lysates may run through a third protein. A result given as binding can be weak or reduced; the word gives no strength. For some assays here: Tags and fused reporters may be left off the sequences shown.

Take “Thermus thermophilus HB8 MutL (endogenous) (from UniProt Q9RA54)”: the binding entry in test [1], in test [2] and in test [3] was “binds” throughout.
On to “Thermus thermophilus HB8 MutS (endogenous) (from UniProt Q56239)”, for which the results for the binding entry in test [1], in test [2] and in test [3] were “binds”, “no binding (only without an adenine nucleotide)” and “binds”, respectively.

B1: Thermus thermophilus HB8 MutS2 (endogenous) (protein, UniProt Q5SHT5 1-744)
chain: MRDVLEVLEFPRVRALLAERAKTPLGRELALALAPLPREEAEKRHELTGEALSYPYALPEAGTLREAYGRALAGARLSGPELLKAAKALEEAMALKEELLPLKNALSQVAEGIGDHTPFLERVRKALDEEGAVKDEASPRLAQIRRELRPLRQQILDRLYALMDRHREAFQDRFVTLRRERYCVPVRAGMAQKVPGILLDESESGATLFIEPFSVVKLNNRLQALRLKEEEEVNRILRDLSERLAKDEGVPKTLEALGLLDLVQAQAALARDLGLSRPAFGERYELYRAFHPLIPDAVRNSFALDEKNRILLISGPNMGGKTALLKTLGLAVLMAQSGLFVAAEKALLAWPDRVYADIGDEQSLQENLSTFAGHLRRLREMLEEATSHSLVLIDELGSGTDPEEGAALSQAILEALLERGVKGMVTTHLSPLKAFAQGREGIQNASMRFDLEALRPTYELVLGVPGRSYALAIARRLALPEEVLKRAEALLPEGGRLEALLERLEAERLALEAERERLRRELSQVERLRKALAEREARFEEERAERLKALEEEVRAELLKVEAELKALKEKARTEGKRDALRELMALRERYAKKAPPPPPPPGLAPGVLVEVPSLGKRGRVVELRGEEVLVQVGPLKMSLKPQEVKPLPEAEPGKPLLAKPRREVKEVDLRGLTVAEALLEVDQALEEARALGLSTLRLLHGKGTGALRQAIREALRRDKRVESFADAPPGEGGHGVTVVALRP
In the case of B1, the binding result in test [4] and in test [5] was “binds” each time.

The values are drawn from paper PMC3084264.
